Results reported in patent US20060235013A1, “Tricyclic azole derivatives” (priority 2005, published 2006).
Some entries share one result that the patent states for a list of compounds. Some compounds share one range, which may span the group rather than tell each member.

Molecular target: T1, Aurora A kinase (Homo sapiens, UniProt O14965)
T1 sequence (O14965 1-403): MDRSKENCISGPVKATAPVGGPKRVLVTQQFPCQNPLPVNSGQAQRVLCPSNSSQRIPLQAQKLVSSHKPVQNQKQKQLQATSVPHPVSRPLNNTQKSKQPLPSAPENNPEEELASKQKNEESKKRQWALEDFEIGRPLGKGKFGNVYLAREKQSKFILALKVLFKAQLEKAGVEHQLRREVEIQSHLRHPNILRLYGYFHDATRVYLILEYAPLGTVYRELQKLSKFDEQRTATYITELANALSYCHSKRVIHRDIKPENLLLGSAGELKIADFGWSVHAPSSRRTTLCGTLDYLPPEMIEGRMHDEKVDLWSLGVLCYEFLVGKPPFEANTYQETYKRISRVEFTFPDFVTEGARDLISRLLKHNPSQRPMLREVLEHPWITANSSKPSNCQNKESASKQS
Experiment: IC50 determination for inhibitors of Aurora A (ELISA-type kinase assay, GST-Histone H3 substrate)
Assay type: biochemical
Conditions: mutant Aurora A kinase, 30 μM ATP, 40 minutes, read-out: IC50 Aurora A kinase inhibition
Method: IC50 Determination for Inhibitors of Aurora A
Aurora A is a serine threonine kinase involved in spindle assembly and chromosome segregation.
The assay is a typically ELISA-type assay where substrate (GST-Histone H3) is coupled to the assay-plate and is phosphorylated by the kinase. Phosphorylation is detected by a mouse anti-Phosphopeptid mAb and an HRP-labeled anti-mouse pAb. The assay is validated for IC50-determination.
Kinase activities were measured by Enzyme-Linked Immunosorbent Assay (ELISA): Maxisorp 384-well plates (Nunc) were coated with recombinant fusion protein comprising residues 1-15 of HistoneH3 fused to the N-terminus of Glutathione-S-Transferase. Plates were then blocked with a solution of 1 mg/mL I-block (a highly purified form of casein, Tropix cat. no. T2015) in phosphate-buffered saline. Kinase reactions were carried out in the wells of the ELISA plate by combining an appropriate amount of mutant Aurora A kinase with test compound and 30 μM ATP. The reaction buffer was 10× Kinase Buffer (Cell Signaling cat. no. 9802) supplemented with 1 μg/mL I-block. Reactions were stopped after 40 minutes by addition of 25 mM EDTA. After washing, substrate phosphorylation was detected by addition of anti-phospho-Histone H3 (Ser 10) 6G3 mAb (Cell Signaling cat. no. 9706) and sheep anti-mouse pAb-HRP (Amersham cat. no. NA931V), followed by colorimetric development with TMB (3,3′,5,5′-tetramethylbenzidine from Kirkegaard & Perry Laboratories). After readout of the adsorbance, IC50 values were calculated using a non-linear curve fit (XLfit software (ID Business Solution Ltd., Guilford, Surrey, UK)).

Question: For CCN1C(=O)C(C)(C)c2cc3nc(-c4n[nH]c5c4CN(Cc4ccccc4)CC5)[nH]c3cc21 [Example 13, 2-(5-Benzyl-4,5,6,7-tetrahydro-1H-pyrazolo[4,3-c]pyridin-3-yl)-5-ethyl-7,7-dimethyl-5,7-dihydro-3H-imidazo[4,5-f]indol-6-one], which IC50 is on record?
Answer: 1 to 500 nM

Question: Which IC50 does the source give for CCN1C(=O)C(C)(C)c2cc3nc(-c4n[nH]c5c4CN(C(=O)N4CCOCC4)CC5)[nH]c3cc21 [Example 18, 5-Ethyl-7,7-dimethyl-2-[5-(morpholine-4-carbonyl)-4,5,6,7-tetrahydro-1H-pyrazolo[4,3-c]pyridin-3-yl]-5,7-dihydro-3H-imidazo[4,5-f]indol-6-one] here?
Answer: 1 to 500 nM

Question: With CCN1C(=O)C(C)(C)c2cc3nc(-c4n[nH]c5c4CN(Cc4ccccc4)C5)[nH]c3cc21 [Example 19, 2-(5-Benzyl-1,4,5,6-tetrahydro-pyrrolo[3,4-c]pyrazol-3-yl)-5-ethyl-7,7-dimethyl-5,7-dihydro-3H-imidazo[4,5-f]indol-6-one] as the compound, how does the IC50 read?
Answer: 1 to 500 nM

Question: For CCc1cccc(CC)c1NC(=O)N1Cc2[nH]nc(-c3nc4cc5c(cc4[nH]3)N(CC)C(=O)C5(C)C)c2C1 [Example 20, 3-(5-Ethyl-7,7-dimethyl-6-oxo-3,5,6,7-tetrahydro-imidazo[4,5-f]indol-2-yl)-4,6-dihydro-1H-pyrrolo[3,4-c]pyrazole-5-carboxylic acid (2,6-diethyl-phenyl)-amide], which IC50 is on record?
Answer: 1 to 500 nM

Question: For CCc1cccc(CC)c1NC(=O)N1Cc2[nH]nc(-c3nc4cc5c(cc4[nH]3)N(C(C)C)C(=O)C5(C)C)c2C1 [Example 21, 3-(5-Isopropyl-7,7-dimethyl-6-oxo-3,5,6,7-tetrahydro-imidazo[4,5-f]indol-2-yl)-4,6-dihydro-1H-pyrrolo[3,4-c]pyrazole-5-carboxylic acid (2,6-diethyl-phenyl)-amide], which IC50 is on record?
Answer: 1 to 500 nM

Question: How did the IC50 turn out when CCN1C(=O)C(C)(C)c2cc3nc(-c4n[nH]c5c4CN(C(=O)C4CC4)C5)[nH]c3cc21 [Example 22, 2-(5-Cyclopropanecarbonyl-1,4,5,6-tetrahydro-pyrrolo[3,4-c]pyrazol-3-yl)-5-ethyl-7,7-dimethyl-5,7-dihydro-3H-imidazo[4,5-f]indol-6-one] was run?
Answer: 1 to 500 nM

Question: For CC(C)N1C(=O)C(C)(C)c2cc3nc(-c4n[nH]c5c4CN(C(=O)Cc4cccs4)C5)[nH]c3cc21 [Example 24, 5-Isopropyl-7,7-dimethyl-2-[5-(2-thiophen-2-yl-acetyl)-1,4,5,6-tetrahydro-pyrrolo[3,4-c]pyrazol-3-yl]-5,7-dihydro-3H-imidazo[4,5-f]indol-6-one], which IC50 is on record?
Answer: 1 to 500 nM

Question: How did the IC50 turn out when CCN1C(=O)C(C)(C)c2cc3nc(-c4n[nH]c5c4CSCC5)[nH]c3cc21 [Example 26, 5-Ethyl-7,7-dimethyl-2-(1,4,6,7-tetrahydro-thiopyrano[4,3-c]pyrazol-3-yl)-5,7-dihydro-3H-imidazo[4,5-f]indol-6-one] was run?
Answer: 1 to 500 nM

Question: Which IC50 does the source give for CC(C)N1C(=O)C(C)(C)c2cc3nc(-c4n[nH]c5c4CSC5)[nH]c3cc21 [Example 28, 2-(4,6-Dihydro-1H-thieno[3,4-c]pyrazol-3-yl)-5-isopropyl-7,7-dimethyl-5,7-dihydro-3H-imidazo[4,5-f]indol-6-one] here?
Answer: 1 to 500 nM
